Results: the supplement of paper PMC3545927
Only a part is listed here, and it is no random draw.

Chains of the proteins cited; added tags and fusions are not shown.
furin, P09958, UniProt P09958, whole entry: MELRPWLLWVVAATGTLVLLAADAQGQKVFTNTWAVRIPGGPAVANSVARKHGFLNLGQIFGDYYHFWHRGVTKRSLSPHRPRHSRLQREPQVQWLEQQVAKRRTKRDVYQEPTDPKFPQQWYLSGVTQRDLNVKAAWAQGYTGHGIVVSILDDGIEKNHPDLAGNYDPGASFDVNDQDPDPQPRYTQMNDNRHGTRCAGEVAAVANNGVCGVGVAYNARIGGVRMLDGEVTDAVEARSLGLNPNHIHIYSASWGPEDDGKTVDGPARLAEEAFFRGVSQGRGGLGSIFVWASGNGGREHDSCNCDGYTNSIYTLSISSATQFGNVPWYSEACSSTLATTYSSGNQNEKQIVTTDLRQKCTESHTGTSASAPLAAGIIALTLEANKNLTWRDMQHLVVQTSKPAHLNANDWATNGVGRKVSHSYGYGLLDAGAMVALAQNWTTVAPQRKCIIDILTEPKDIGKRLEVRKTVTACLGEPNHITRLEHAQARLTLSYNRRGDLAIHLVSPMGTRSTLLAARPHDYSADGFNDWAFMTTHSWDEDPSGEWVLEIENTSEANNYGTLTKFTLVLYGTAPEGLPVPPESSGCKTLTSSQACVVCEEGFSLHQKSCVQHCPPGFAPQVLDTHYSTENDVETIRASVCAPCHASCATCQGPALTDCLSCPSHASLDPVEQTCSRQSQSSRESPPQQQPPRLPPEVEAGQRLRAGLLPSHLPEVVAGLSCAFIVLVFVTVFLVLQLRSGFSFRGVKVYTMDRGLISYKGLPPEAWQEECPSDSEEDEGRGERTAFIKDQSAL

Target: furin, P09958
Experiment: furin cleavage Z-score vs untreated control; higher = more cleavage, active = 3.5 or more, inactive = 1 or less, 8 variable residues between constant flanks
Outline: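 Purified furin digested bead-held 8-mer peptide–cDNA fusions at 1:10 enzyme:substrate in 0.01 ml of 50 mM HEPES pH 7.5 with CaCl2 and NaCl for 7.5, 15 or 30 min. The cleavage Z-score compares sequencing counts of released DNA with furin-free reactions on a log scale, with lowess adjustment and median absolute deviation scaling.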

Row | Sequence | furin cleavage Z-score (7.5 min) | furin cleavage Z-score (15 min) | furin cleavage Z-score (30 min)
1 | CASILRQRRCAGNASASA [FS-718] | 2.96 | 2.4 | 2.95
2 | CAKWLRKRRIAGNASASA [FS-455] | 1.96 | 3.03 | 1.34
3 | CARPRRRCSPAGNASASA [FS-3024] | 1.15 | 1.37 | 1.27
4 | CASASRGPRSAGNASASA [FS-1078] | active: 4.05 | active: 4.67 | active: 4.87
5 | CARRWRSLRPAGNASASA [FS-1924] | inactive: -0.388 | 2.12 | 2.35
6 | CARRKRKKHRAGNASASA [FS-1776] | 1.02 | 1.5 | 2.48
7 | CARVSRSSSAAGNASASA [FS-2109] | 2.76 | 2.22 | 2.59
8 | CALLRRAKRSAGNASASA [FS-1228] | 2.43 | 1.99 | 1.9
9 | CAYIHRIPRSAGNASASA [FS-1665] | 2.68 | 2.75 | 1.68
10 | CADRLRVRRSAGNASASA [FS-1315] | 1.98 | 1.87 | 1.5
11 | CAAKHRTKRSAGNASASA [FS-746] | active: 14.6 | active: 14.7 | active: 10.8
12 | CARKRRSTDFAGNASASA [FS-2217] | active: 9.58 | active: 11.2 | active: 9.06
13 | CARKNRSHIPAGNASASA [FS-1730] | inactive: 0.266 | inactive: -0.138 | inactive: -0.417
14 | CAEEIRVNRSAGNASASA [FS-229] | 2.33 | inactive: 0.724 | 1.69
15 | CAFTPCSGSWAGNASASA [HC1827] | inactive: -0.899 | inactive: -0.656 | inactive: -0.511
16 | CARPVRCVEAAGNASASA [FS-1914] | 2.19 | 3.43 | 3.29
17 | CALGSRPARGAGNASASA [FS-818] | 1.83 | 2.71 | 1.43
18 | CARPRRGIIFAGNASASA [FS-3021] | 1.06 | 1.16 | active: 5.75
19 | CANRQRVKRVAGNASASA [FS-1144] | 2.25 | 2.1 | 1.42
20 | CAPQRRAVEPAGNASASA [FS-2543] | 1.48 | 1.56 | 1.85
21 | CAGSHMKRRSAGNASASA [FS-659] | inactive: -0.564 | inactive: 0.785 | 1.98
22 | CATTPCSGSIAGNASASA [HC1924] | inactive: -0.658 | inactive: -0.276 | inactive: -1.61
23 | CARRKRHDIAAGNASASA [FS-3053] | active: 9.56 | active: 8.72 | active: 8.78
24 | CAVALRLRRSAGNASASA [FS-102] | 2.12 | 1.69 | 1.38

Just furin cleavage Z-score (7.5 min) and furin cleavage Z-score (30 min) (2 entries from above):
Row	Sequence	furin cleavage Z-score (7.5 min)	furin cleavage Z-score (30 min)
10	CADRLRVRRSAGNASASA [FS-1315]	1.98	1.5
11	CAAKHRTKRSAGNASASA [FS-746]	active: 14.6	active: 10.8
